The test system of this data set is TH+ structures in the Islands of Calleja. Description: Nanoscale distribution of Fluo-CAR LPs relative to TH-immunopositive dopaminergic varicosities.

Molecules are shown by their SMILES.

Turning to `CN(CCCNC(=O)CCCCC[N+]1=C(/C=C/C=C/C=C2/N(C)c3ccc(S(=O)(=O)O)cc3C2(C)C)C(C)(C)c2cc(S(=O)(=O)[O-])ccc21)C(=O)N[C@H]1CC[C@@H](CCN2CCN(c3cccc(Cl)c3Cl)CC2)CC1` [fluo-cariprazine], the “Fluo-CAR STORM density on TH+ structures (norm.to average), actual median” value by setting is: (300 nM on acute slices (Fig. 4d), n = 12) 0,1375; (Fig. 5e, n = 12 frames) 0,0.

For the origin of these results see paper PMC8586358 (Nature Communications, 2021).
